Article PMC3880038
Results are given in words; binding and its absence hold for the method and conditions named. Binding seen in cells or lysates may run through a third protein. Some binding calls cover weakened binding; strength is not graded here.

Amino acid sequences for entries named in this document (tags omitted).
UniProt Q28021: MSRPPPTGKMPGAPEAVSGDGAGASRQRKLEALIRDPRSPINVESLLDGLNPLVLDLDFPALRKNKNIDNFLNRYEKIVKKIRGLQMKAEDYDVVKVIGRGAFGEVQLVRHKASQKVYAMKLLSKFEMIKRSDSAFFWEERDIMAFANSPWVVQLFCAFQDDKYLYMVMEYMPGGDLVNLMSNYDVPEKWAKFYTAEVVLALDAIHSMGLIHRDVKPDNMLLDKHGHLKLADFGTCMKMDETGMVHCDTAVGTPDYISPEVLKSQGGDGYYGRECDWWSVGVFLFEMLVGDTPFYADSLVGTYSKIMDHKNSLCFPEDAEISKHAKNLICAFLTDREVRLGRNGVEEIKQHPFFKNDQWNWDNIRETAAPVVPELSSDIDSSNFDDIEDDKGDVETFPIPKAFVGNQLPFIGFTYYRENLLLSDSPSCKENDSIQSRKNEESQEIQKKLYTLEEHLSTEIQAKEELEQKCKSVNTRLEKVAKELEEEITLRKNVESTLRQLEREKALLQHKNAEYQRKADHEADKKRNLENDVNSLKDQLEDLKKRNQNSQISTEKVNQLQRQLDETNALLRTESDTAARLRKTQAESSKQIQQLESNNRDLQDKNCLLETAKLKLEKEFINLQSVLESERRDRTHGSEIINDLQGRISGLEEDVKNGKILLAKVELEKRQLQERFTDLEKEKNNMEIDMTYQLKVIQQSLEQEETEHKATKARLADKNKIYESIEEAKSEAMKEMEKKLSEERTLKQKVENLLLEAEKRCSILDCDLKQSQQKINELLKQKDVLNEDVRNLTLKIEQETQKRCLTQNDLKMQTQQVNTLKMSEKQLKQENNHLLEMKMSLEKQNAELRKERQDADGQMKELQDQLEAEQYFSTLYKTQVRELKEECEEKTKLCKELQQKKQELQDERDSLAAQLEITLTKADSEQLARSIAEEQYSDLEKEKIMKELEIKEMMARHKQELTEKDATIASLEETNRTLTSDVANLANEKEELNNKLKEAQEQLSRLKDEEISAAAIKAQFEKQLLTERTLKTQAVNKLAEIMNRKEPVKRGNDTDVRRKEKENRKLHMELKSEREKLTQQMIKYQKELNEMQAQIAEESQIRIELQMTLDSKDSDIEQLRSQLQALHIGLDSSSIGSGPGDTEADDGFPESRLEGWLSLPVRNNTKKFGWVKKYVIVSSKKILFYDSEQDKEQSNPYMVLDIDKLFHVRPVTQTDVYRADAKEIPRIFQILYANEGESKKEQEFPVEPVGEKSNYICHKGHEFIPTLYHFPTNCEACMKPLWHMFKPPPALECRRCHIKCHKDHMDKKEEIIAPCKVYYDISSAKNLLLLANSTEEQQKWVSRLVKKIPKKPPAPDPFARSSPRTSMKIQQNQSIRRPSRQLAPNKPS
UniProt P26038: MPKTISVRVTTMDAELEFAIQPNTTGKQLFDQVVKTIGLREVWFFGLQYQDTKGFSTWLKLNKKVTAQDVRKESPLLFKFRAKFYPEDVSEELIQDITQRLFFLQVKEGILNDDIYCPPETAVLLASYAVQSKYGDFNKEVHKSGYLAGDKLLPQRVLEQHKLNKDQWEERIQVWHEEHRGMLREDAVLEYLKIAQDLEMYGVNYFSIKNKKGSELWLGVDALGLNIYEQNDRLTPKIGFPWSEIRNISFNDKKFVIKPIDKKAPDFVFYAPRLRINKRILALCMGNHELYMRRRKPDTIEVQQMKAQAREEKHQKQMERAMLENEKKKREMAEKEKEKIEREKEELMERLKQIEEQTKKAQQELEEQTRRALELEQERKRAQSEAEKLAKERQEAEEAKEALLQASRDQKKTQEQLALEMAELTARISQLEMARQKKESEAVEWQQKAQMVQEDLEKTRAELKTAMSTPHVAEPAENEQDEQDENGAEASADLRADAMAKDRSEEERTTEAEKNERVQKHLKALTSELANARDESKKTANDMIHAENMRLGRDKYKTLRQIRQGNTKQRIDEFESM
UniProt P35241: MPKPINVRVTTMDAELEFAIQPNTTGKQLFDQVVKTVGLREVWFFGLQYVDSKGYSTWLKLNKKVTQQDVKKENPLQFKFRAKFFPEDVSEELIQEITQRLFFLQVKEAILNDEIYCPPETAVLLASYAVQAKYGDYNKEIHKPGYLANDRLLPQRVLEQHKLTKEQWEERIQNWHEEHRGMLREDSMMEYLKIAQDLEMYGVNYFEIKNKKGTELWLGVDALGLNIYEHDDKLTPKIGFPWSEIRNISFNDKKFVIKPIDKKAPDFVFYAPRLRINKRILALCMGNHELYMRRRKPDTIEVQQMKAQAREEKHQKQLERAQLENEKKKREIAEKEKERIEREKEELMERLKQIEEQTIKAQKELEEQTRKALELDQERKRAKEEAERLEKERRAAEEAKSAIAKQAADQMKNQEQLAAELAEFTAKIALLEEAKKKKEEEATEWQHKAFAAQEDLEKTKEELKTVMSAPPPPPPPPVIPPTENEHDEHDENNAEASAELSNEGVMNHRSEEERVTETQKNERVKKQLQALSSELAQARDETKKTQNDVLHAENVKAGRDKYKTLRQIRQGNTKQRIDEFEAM
UniProt P15311: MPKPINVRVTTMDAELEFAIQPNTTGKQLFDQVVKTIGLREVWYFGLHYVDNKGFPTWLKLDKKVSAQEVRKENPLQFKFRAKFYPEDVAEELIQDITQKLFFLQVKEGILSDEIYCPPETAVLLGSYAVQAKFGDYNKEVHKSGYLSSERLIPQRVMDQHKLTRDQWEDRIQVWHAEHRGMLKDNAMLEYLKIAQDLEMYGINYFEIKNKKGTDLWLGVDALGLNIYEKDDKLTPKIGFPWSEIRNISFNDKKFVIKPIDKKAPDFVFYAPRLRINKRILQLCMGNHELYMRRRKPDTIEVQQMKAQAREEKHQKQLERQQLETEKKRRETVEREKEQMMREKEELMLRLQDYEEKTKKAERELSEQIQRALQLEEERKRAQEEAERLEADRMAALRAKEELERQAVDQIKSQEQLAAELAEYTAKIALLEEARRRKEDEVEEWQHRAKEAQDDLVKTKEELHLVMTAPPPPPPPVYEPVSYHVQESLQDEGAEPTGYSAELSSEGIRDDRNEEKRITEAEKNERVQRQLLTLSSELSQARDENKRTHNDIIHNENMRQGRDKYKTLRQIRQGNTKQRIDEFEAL
UniProt Q2YDP5: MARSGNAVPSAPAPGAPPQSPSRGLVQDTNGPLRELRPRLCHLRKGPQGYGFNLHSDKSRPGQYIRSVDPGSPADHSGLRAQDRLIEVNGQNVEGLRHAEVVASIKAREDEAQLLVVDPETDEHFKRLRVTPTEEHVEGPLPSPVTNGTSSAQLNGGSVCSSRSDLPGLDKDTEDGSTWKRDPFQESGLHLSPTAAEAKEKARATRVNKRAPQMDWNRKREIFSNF

Legend:
[1] = molecular target: Rho kinase 2 (ROCK2), endogenous in BPAEC (bovine (endogenous in BPAEC)) (UniProt Q28021); experiment: co-IP; endogenous EBP50, NHERF2 or ROCK2 immunoprecipitated from BPAEC lysates (20 mM Tris HCl pH 7.4, 150 mM NaCl, 2 mM EDTA, 2 mM sodium vanadate, 1% Nonidet P-40; protein G Sepharose, 4°C), Western blot; cells untreated, with nocodazole (80 ng/ml, 16 h), or transfected with non-silencing RNA
[2] = molecular target: c-myc-tagged moesin (pCMV-myc moesin) (UniProt P26038); experiment: co-IP; anti-c-myc immunoprecipitation from lysates of BPAEC transfected with pCMV-myc ezrin, radixin or moesin (IP buffer with 150 mM NaCl, 1% Nonidet P-40; protein G Sepharose, 4°C), Western blot for c-myc, EBP50 and NHERF2
[3] = molecular target: c-myc-tagged radixin (pCMV-myc radixin) (UniProt P35241); experiment: as above
[4] = molecular target: c-myc-tagged ezrin (pCMV-myc ezrin) (UniProt P15311); experiment: as above
[5] = molecular target: NHERF2 (Na+/H+ exchanger regulatory factor 2), endogenous in BPAEC (bovine (endogenous in BPAEC)) (UniProt Q2YDP5); experiment: co-IP; endogenous EBP50, NHERF2 or ROCK2 immunoprecipitated from BPAEC lysates (20 mM Tris HCl pH 7.4, 150 mM NaCl, 2 mM EDTA, 2 mM sodium vanadate, 1% Nonidet P-40; protein G Sepharose, 4°C), Western blot; cells untreated, with nocodazole (80 ng/ml, 16 h), or transfected with non-silencing RNA

Row | Substance | binding [1] | binding [2] | binding [3] | binding [4] | binding [5]
1 | NHERF2 (Na+/H+ exchanger regulatory factor 2), endogenous in BPAEC (from UniProt Q2YDP5 1-226) | binds | binds | binds | binds | 
2 | Rho kinase 2 (ROCK2), endogenous in BPAEC (from UniProt Q28021 1-1388) (enzyme) |  |  |  |  | binds
